Measured values as given in PubChem BioAssay AID2685 (National Center for Advancing Translational Sciences (NCATS), 2010).
The list shows a part of the results. Shown are side measurements of this screen, not its main read-out; they come without a call. Most of these compounds were active or inconclusive in the main read-out, so they are no random draw. Potencies come from curve fits of mixed quality, noted in brackets.

Experiment: qHTS Assay for Lipid Storage Modulators in Drosophila S3 Cells;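 on cell number change: cells counted by Cell Tracker Red CMTPX staining in the red channel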
Conditions: BODIPY lipid droplet fluorescence, 18-24 h; for cell number change: measured here: cell count max response, cells fed with added oleic acid
Outline: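 Drosophila S3 cells got compounds at several concentrations plus oleic acid (400 uM solution). Laser-scanning cytometry with 488 nm excitation read lipid droplets at 500-530 nm and cells at 575-640 nm. Percent activity was relative to 20 uM Triacsin C.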

[1] = measured here: cell number channel AC50, cells fed with added oleic acid
[2] = measured here: lipid fluorescence (Fed channel) AC50, cells fed with added oleic acid

Row | SMILES | AC50 [1] | AC50 [2] | cell number change [%]
1 | Cn1c(=O)c2c(SCc3ccccc3)nc(-c3ccco3)nc2n(C)c1=O | 0.184 µM [rising, full curve, poor fit] | 0.146 µM [rising, full curve, poor fit] | 
2 | O=C(O)CCn1cc(/C=C2\SC(=S)NC2=O)c(-c2ccccc2)n1 |  |  | 78.8
3 | Cc1ccc(OCCn2c(CCCO)nc3ccccc32)cc1 | 29.1 µM [falling, single point] | 0.13 µM [rising, full curve, poor fit] | -73.6
4 | COc1ccc(CNc2nc(NCc3ccc(OC)cc3)c3[nH]cnc3n2)cc1 |  | 2.91 µM [rising, single point] | -4.03
5 | O=C(Nc1ccc(S(=O)(=O)N2CCCC2)cc1)c1ccc(CN2CCc3ccccc3C2)cc1 | 13 µM [falling, partial curve, poor fit] | 7.31 µM [falling, partial curve] | -41.4
6 | Cc1ccc(CN2CCN(/N=C/c3ccc(C(F)(F)F)cc3)CC2)c(C)c1 |  |  | -6.59
7 | CCC(c1nnnn1Cc1ccc2c(c1)OCO2)N1CCN(c2ccc(OC)cc2)CC1 (configuration not stated) | 0.092 µM [rising, full curve, poor fit] | 0.092 µM [rising, partial curve, poor fit] | 
8 | CC(=O)Nc1ccc(S(=O)(=O)N2CCSC2c2ccc(C)cc2)cc1 (configuration not stated) |  |  | -21.8
9 | COC(=O)C1=C(O)/C(=C/c2ccc(OCC(=O)Nc3ccccc3)cc2)N=C1C |  | 0.731 µM [falling, full curve] | 8.65
10 | COc1ccc([C@@H]2CC=C(C(=O)O)[C@H](c3ccc(F)cc3)N2S(=O)(=O)c2ccc(Cl)cc2)cc1 |  | 0.13 µM [rising, full curve, poor fit] | 18.9
11 | Cc1cc2cc(C)c3nnc(SCC(=O)Nc4ccc(S(=O)(=O)N5CCCCC5C)cc4)n3c2cc1C (configuration not stated) |  |  | -16.7
12 | CCCOc1ccc(-c2nnn(CC(=O)c3c[nH]c4ccccc34)n2)cc1 | 3.26 µM [rising, single point] |  | 
13 | Cc1ccc(C(=O)N/C(=C\c2ccco2)C(=O)NCCN2CCOCC2)cc1 |  |  | -13.2
14 | COc1ccc(Oc2cc(C)nc(Cl)n2)nn1 |  | 29.1 µM [falling, single point] | 17.2
15 | CN1CCN(CC(=O)NC(=O)NC2CCCCC2)CC1 | 0.461 µM [falling, full curve] |  | -33.6
16 | Nc1c(N(Cc2ccco2)C(=O)c2cccc(Cl)c2)c(=O)[nH]c(=O)n1Cc1ccccc1 |  | 0.92 µM [rising, single point] | -22.2
17 | Cc1cccc(-n2c(SCC(=O)NCc3ccco3)nc3ccccc3c2=O)c1 | 3.66 µM [rising, single point] | 10.3 µM [rising, single point] | 22.4
18 | Cc1cccc(NC(=O)CSc2nnc(CCNC(=O)OC(C)(C)C)o2)c1C | 2.06 µM [rising, single point] |  | 6.3
19 | COc1ccccc1-c1oc2ccccc2c1C#CC1(N)CCCCC1 | 29.1 µM [falling, single point] |  | -58.9
20 | O=C1c2cc([N+](=O)[O-])cc3cc([N+](=O)[O-])cc(c23)C(=O)N1c1ccccn1 | 0.13 µM [rising, full curve] | 0.13 µM [rising, full curve, poor fit] | -9.78

Random excerpt: 5 compounds from above, in no set order.
Row | SMILES | AC50 [1] | AC50 [2] | cell number change [%]
3 | Cc1ccc(OCCn2c(CCCO)nc3ccccc32)cc1 | 29.1 µM [falling, single point] | 0.13 µM [rising, full curve, poor fit] | -73.6
19 | COc1ccccc1-c1oc2ccccc2c1C#CC1(N)CCCCC1 | 29.1 µM [falling, single point] |  | -58.9
6 | Cc1ccc(CN2CCN(/N=C/c3ccc(C(F)(F)F)cc3)CC2)c(C)c1 |  |  | -6.59
2 | O=C(O)CCn1cc(/C=C2\SC(=S)NC2=O)c(-c2ccccc2)n1 |  |  | 78.8
9 | COC(=O)C1=C(O)/C(=C/c2ccc(OCC(=O)Nc3ccccc3)cc2)N=C1C |  | 0.731 µM [falling, full curve] | 8.65

The list goes on.

Row | SMILES | AC50 [1] | AC50 [2] | cell number change [%]
21 | COC(=O)CSc1ncc(C#N)c(N)n1 |  | 2.31 µM [falling, partial curve, poor fit] | -17.3
22 | Cn1cnc([N+](=O)[O-])c1Oc1cccc2ccccc12 | 23.1 µM [falling, partial curve] | 20.6 µM [falling, partial curve] | -61.1
23 | Clc1cnc(N/N=C/c2ccncc2)c(Cl)c1 |  | 29.1 µM [rising, single point] | 25.7
24 | S=C(Sc1ccc(Cl)cc1)Sc1ccc(Cl)cc1 | 4.61 µM [falling, partial curve, poor fit] | 2.91 µM [falling, partial curve] | -25.6
25 | O=C1CN(C(=O)COC(=O)CNS(=O)(=O)/C=C/c2ccccc2)c2ccccc2N1 | 0.146 µM [rising, single point] |  | 
26 | O=C(CCl)NNc1nc(-c2ccccc2)c2cc(Cl)ccc2n1 |  | 23.1 µM [falling, partial curve] | -22
27 | O=C(Cc1ccc(Br)cc1)Nc1ccc(S(=O)(=O)Nc2ncccn2)cc1 |  |  | -3.3
28 | CCCn1c(NC(=O)C2COc3ccccc3O2)nc2ccccc21 (configuration not stated) | 3.66 µM [rising, single point] |  | 
29 | CC(=O)NS(=O)(=O)c1ccc(N=c2ssc3c2-c2cc(C)c(C)cc2NC3(C)C)cc1 |  | 4.11 µM [rising, partial curve] | -12.8
30 | Cc1ccc(C)c(N2CCN(C(=O)C3CCCN(S(=O)(=O)c4c(C)noc4C)C3)CC2)c1 (configuration not stated) |  | 10.3 µM [falling, partial curve, poor fit] | 4.27
31 | CC(C)c1nnc(SCC(=O)Nc2ccc3c(c2)OCCO3)n1C |  | 29.1 µM [falling, single point] | 19.2
32 | COc1ccc(C(C(=O)NC(C)(C)C)N(Cc2ccc(C)cc2)C(=O)CCC(=O)Nc2cc(C)on2)cc1 (configuration not stated) | 29.1 µM [falling, partial curve, poor fit] | 29.1 µM [falling, single point] | -31.4
33 | Cc1ccc(Oc2nc(CN3CCOCC3)nc3sc4c(c23)CCC(C)C4)cc1 (configuration not stated) | 23.1 µM [falling, single point] | 18.4 µM [falling, single point] | -43.5
34 | CCN1CCN(c2ccc(NC(=O)c3ccco3)cc2Cl)CC1 |  | 6.51 µM [falling, single point] | 13.5
35 | CCOc1ccc2[nH]c(=O)c(C(c3nnnn3Cc3ccco3)N3CCN(C)CC3)cc2c1 (configuration not stated) | 7.31 µM [falling, partial curve] | 4.11 µM [falling, partial curve] | -61
36 | OCCN1CCN(C(c2cccs2)c2ccc3cccnc3c2O)CC1 (configuration not stated) |  | 1.16 µM [falling, full curve] | -23.3
37 | COc1ccc(-c2ccc(S(=O)(=O)N3CCCC3)cc2)cc1 |  |  | 3.28
38 | COc1ccc(CCC(=O)NCCc2ccc(OC)c(OC)c2)cc1 |  | 7.31 µM [falling, partial curve, poor fit] | 1.38
39 | O=S(=O)(NCC1OCCc2ccccc21)c1ccc(S(=O)(=O)N2CCOCC2)cc1 (configuration not stated) | 0.651 µM [falling, single point] |  | 7.88
40 | CCC(Sc1ccccc1C(=O)O)C(=O)O (configuration not stated) |  | 29.1 µM [falling, single point] | -29.5

Row | SMILES | AC50 [1] | AC50 [2] | cell number change [%]
41 | COc1ccc(/C=N/NC(=O)c2cnccn2)cc1O | 18.4 µM [rising, single point] | 0.0206 µM [falling, full curve, poor fit] | 111
42 | O=C(Cc1cccs1)NCCCc1ccccc1 |  | 2.59 µM [falling, partial curve] | -18.4
43 | CC(C)c1nc(N2CCN(C(=O)c3ccco3)CC2)c2c3c(sc2n1)CCCC3 |  | 6.51 µM [rising, single point] | 
44 | COc1cc(/C=N/N=C(N)N)ccc1OCc1ccccc1Cl |  | 1.64 µM [rising, partial curve] | -64.6
45 | O=C(Nc1cccc([N+](=O)[O-])c1)c1cnccn1 |  | 0.146 µM [rising, full curve, poor fit] | 4.9
46 | COC(=O)[C@@]12CCCCN1[C@H](c1ccc(-c3ccc(OC)cc3)cc1)[C@H]1C(=O)N(C)C(=O)[C@H]12 |  | 0.00517 µM [rising, full curve, poor fit] | 26.5
47 | CN(CC(=O)Nc1cccc(S(=O)(=O)NC2=NCCC2)c1)Cc1ccccc1Cl | 1.84 µM [rising, partial curve, poor fit] | 2.31 µM [rising, partial curve] | -13.2
48 | Cc1ccccc1N/C(=N/S(=O)(=O)c1ccccc1)c1ccc(F)cc1 |  |  | -18.5
49 | CC(=O)Nc1ccc(C(=O)COC(=O)C2CC2)c(F)c1 | 0.651 µM [rising, single point] |  | 
50 | COc1ccc([C@@H](OC)[C@@]2(Cc3ccc(O)cc3)N=C(N)N(C)C2=O)cc1 |  | 25.9 µM [rising, single point] | 20.7
51 | O=c1cc(C(F)(F)F)[nH]c(=O)n1C1CCCCC1 |  |  | -24.2
52 | COc1ccc(N2CCN(Cc3nc(N)nc(Nc4ccc(C)c(Cl)c4)n3)CC2)cc1 |  |  | -34.4
53 | c1ccc(C2CCC(N3CCN(c4ccccc4)CC3)CC2)cc1 (configuration not stated) |  | 29.1 µM [falling, single point] | -25.6
54 | O=C(NCCN1C(=O)S/C(=C\c2cccnc2)C1=O)c1cc(S(=O)(=O)N2CCOCC2)ccc1F |  | 25.9 µM [falling, single point] | -25.4
55 | COc1cccc(C(=O)NCC(c2cccs2)N2CCc3ccccc32)c1 (configuration not stated) | 0.651 µM [rising, full curve, poor fit] |  | 
56 | O=C(Nc1ccc2c(c1)OCO2)c1cccs1 |  | 0.082 µM [rising, full curve, poor fit] | -13.2
57 | Cc1ccc(C)c(C(=O)CCC(=O)N2CCN(c3ncccn3)CC2)c1 |  | 0.146 µM [rising, full curve, poor fit] | 17.2
58 | O=C(O)c1cc(=O)c2ccccc2o1 |  | 6.51 µM [rising, single point] | 27.2
59 | Cc1[nH]nc2c1C(c1ccc(-c3ccc(Cl)cc3)o1)C(C#N)=C(N)O2 (configuration not stated) |  | 16.4 µM [falling, single point] | 
